# Results taken from the supplement of paper PMC12889115.
# This is one part of the list. These are raw signals, not scaled to a control.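 First-pass screen: polymyxin B was added at a level that permeabilizes the Salmonella outer membrane while sparing the inner membrane. DMSO wells, with and without polymyxin B, defined maximum growth. Because plates differed from one another, each plate's data were ranked separately and the compounds with the lowest OD600 were carried forward as hits.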
# Test system: Salmonella enterica serovar Typhimurium SL1344
# Test: bacterial growth OD600 after 18 h with compound and polymyxin B; higher = more bacterial growth (less inhibition)
# Conditions: 50 µM, Mueller-Hinton broth
Compound,bacterial growth OD600 (polymyxin B 0.75 µg/mL),bacterial growth OD600 (polymyxin B 1 µg/mL)
COc1cc(CN2CCC(c3nc(-c4ccncc4)ncc3-c3cccc(C)c3)CC2)cc(OC)c1,0.8,
COc1ccc(CC2(CCC(=O)NCC3COc4ccccc4O3)CCC(=O)N2)c(F)c1 (centres undefined),0.798,
C=CCCC(=O)N1CCC(n2nccc2NC(=O)c2ccc(OC)cc2)CC1,,0.903
CCOC(=O)CN(C)C(=O)CC1(c2ccccc2)CC(=O)N(Cc2ccc3c(c2)OCO3)C1=O (centres undefined),0.95,
COc1cccc(CN2CCN(Cc3ccc(C#CC(C)(C)O)s3)CC2CCO)c1 (centres undefined),0.793,
COc1cccc(CCC2CCCN(C(=O)c3cc(C)[nH]n3)C2)c1 (centres undefined),0.765,
O=C(NC1CC(=O)N(CCc2cccc(Cl)c2)C1)C1CCOCC1 (centres undefined),,0.77
COCc1nc2cc(NC(=O)Cc3ccccc3)cc(C(=O)N(C)CCn3nc(C)cc3C)c2n1C,0.892,
COc1cccc(OCc2nc(C(=O)N(C)Cc3ccc(F)cc3)co2)c1,,0.715
CCOC(=O)C1(Cc2ccc(Cl)cc2)CCN(C(=O)CCCC(=O)OC)CC1,,0.741
Fc1cccc(-c2n[nH]c3c2CN(Cc2cccc4c2OCO4)CC3)c1,0.558,
COc1ccc(CCc2nc3cccnc3n2C2CCN(C(=O)C3CCCCCN3C)CC2)cc1 (centres undefined),0.915,
O=C(CCN1Cc2ccccc2OC(c2ccccc2)C1)NCCn1cccn1 (centres undefined),0.925,
CCOC(=O)C1(Cc2cccc(OC)c2)CCN(Cc2c[nH]c3ccccc23)CC1,,0.593
Cc1nc2ccc(C(=O)N3CCCC(CNC(=O)c4ccc(F)cc4)C3)cc2nc1C (centres undefined),,0.953
O=C(NCCC1COc2ccccc2O1)c1ccc(N2CCC(O)CC2)nc1 (centres undefined),0.812,
Cc1nc(N2CCC(C(=O)NCc3cnn(C)c3)CC2)nc2ccc(C(C)C)cc12,0.859,
COc1ccc(CN(C)C(=O)CC2(c3ccccc3F)CC(=O)N(C3CCCCC3)C2=O)cc1OC (centres undefined),0.037,
O=C(NCCc1cscn1)c1ccc(OC2CCN(Cc3ccccn3)CC2)cc1,,1.21
CC(C)(C)CN1CCC(C(=O)Nc2ccc(Oc3cccnc3)cc2)CC1,,0.305
CC(C)n1cc(C(=O)NCC2CCCCC2)c(=O)c(C(=O)N2CCN(C(=O)c3cccs3)CC2)c1,0.812,
CCS(=O)(=O)NCc1c(C)ncc2c1CCN(C(=O)C1(c3ccc(OC)cc3)CCCC1)C2,0.979,
CCN1CCN(C2(C(=O)N(C)CCOC)Cc3ccccc3C2)CC1,0.773,
Cn1cc(CNCCN2CCC(O)CC2)c(-c2ccc(Oc3ccccc3)cc2)n1,,0.83
CN(CCOc1ccccc1)C(=O)C1(N(C)C)Cc2ccccc2C1,,1.06
CCC1(C2CCN(C(=O)Cc3cccc(C)c3)CC2)NC(=O)N(Cc2ccc3c(c2)OCO3)C1=O (centres undefined),0.835,
CC(C)Cc1ccc(CN2CCCC(NC(=O)C3CCOCC3)C2)cc1 (centres undefined),,0.707
CCCn1c(C)c(CC(=O)NCC2CCCOC2)c2c1CC(C)(C)CC2=O (centres undefined),,0.701
CCN(CC)C(=O)C1CCCN(C(=O)c2cn(Cc3ccc(Cl)cc3)nn2)C1 (centres undefined),,0.975

# Of the compounds above, these have a thiophene ring, fused or not.
Compound,bacterial growth OD600 (polymyxin B 0.75 µg/mL),bacterial growth OD600 (polymyxin B 1 µg/mL)
COc1cccc(CN2CCN(Cc3ccc(C#CC(C)(C)O)s3)CC2CCO)c1 (centres undefined),0.793,
CC(C)n1cc(C(=O)NCC2CCCCC2)c(=O)c(C(=O)N2CCN(C(=O)c3cccs3)CC2)c1,0.812,
